The target in the test is T1, FLAG-Sirt1 (from pCDH-FLAG-Sirt1) (UniProt Q923E4).
T1 sequence: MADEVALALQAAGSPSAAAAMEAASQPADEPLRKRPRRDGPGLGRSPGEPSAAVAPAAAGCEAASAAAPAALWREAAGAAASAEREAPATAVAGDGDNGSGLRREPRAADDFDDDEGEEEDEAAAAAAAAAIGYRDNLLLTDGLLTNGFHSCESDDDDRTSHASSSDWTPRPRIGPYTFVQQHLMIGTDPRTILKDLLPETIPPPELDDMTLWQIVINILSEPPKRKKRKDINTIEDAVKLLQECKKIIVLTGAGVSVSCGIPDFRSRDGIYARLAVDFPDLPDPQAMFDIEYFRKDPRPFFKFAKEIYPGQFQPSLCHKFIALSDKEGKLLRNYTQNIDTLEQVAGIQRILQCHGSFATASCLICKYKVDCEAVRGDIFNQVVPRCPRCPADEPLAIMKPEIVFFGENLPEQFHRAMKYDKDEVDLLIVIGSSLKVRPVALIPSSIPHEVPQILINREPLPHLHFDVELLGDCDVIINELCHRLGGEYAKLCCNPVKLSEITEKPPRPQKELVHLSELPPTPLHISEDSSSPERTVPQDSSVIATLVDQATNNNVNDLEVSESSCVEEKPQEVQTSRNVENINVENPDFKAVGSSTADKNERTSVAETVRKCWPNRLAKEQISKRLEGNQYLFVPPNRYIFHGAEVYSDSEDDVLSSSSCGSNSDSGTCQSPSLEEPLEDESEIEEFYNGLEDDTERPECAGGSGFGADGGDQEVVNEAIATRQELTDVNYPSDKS
The experiment in a line: co-IP; lysates of C3H10T1/2 cells infected with lentivirus (72 h for NAP1L2-FLAG); procedure as in a cited paper; which protein was precipitated is not told.

No constants are given. Whether binding was seen depends on the method and setting. Binding seen in cells or lysates may run through a third protein. Some entries that bind do so weakly or less than the wild type. Where a sequence is shown, tags or fusion partners need not be part of it.

B1: NAP1L2 (nucleosome assembly protein 1-like 2), endogenous (protein, UniProt P51860 1-460)
chain: MAESVDHKELSESNQEELGSQVMAEGPGESQDRSEGVSIEPGDGGQHGEETVAAGVGEEGKGEEAAAGSGEDAGKCGGTDEDSDSDRPKGLIGYLLDTDFVESLPVKVKCRVLALKKLQTRAAHLESKFLREFHDIERKFAEMYQPLLEKRRQIINAVYEPTEEECEYKSDCEDYFEEEMDEEEETNGNEDGMVHEYVDEDDGYEDCYYDYDDEEEEEEEDDSAGATGGEEVNEEDPKGIPDFWLTVLKNVEALTPMIKKYDEPILKLLTDIKVKLSDPGEPLSFTLEFHFKPNEYFKNELLTKTYVLKSKLACYDPHPYRGTAIEYATGCDIDWNEGKNVTLRTIKKKQRHRVWGTVRTVTEDFPKDSFFNFFSPHGISLNGGDENDDFLLGHNLRTYIIPRSVLFFSGDALESQQEGVVREVNDEIYDKIIYDDWMAAIEEVKACCKNLEALVEDIDR
Consider B1, for which the binding result is reported as “binds”.

These data come from article PMC8844120.
